In the supplement of paper PMC11732987, “Enantioselective OTUD7B fragment discovery through chemoproteomics screening and high-throughput optimisation” (Communications Chemistry, 2025):
The other results are listed elsewhere or left out. The data scatter; read single values as rough.

molecular target: T1, HERC2 C1825 (UniProt O95714); assay: log2 mean competition ratio of IA-DTB cysteine labelling (DMSO/compound) (log2 ratio); higher = stronger cysteine engagement by compound; conditions: 50 µM; treatment time: 4 h; cell line lysate: HEK293T
T1 sequence (whole entry): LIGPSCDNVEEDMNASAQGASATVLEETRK
Description: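 IA-DTB competitive cysteine chemoproteomics in HEK293T RIPA lysate. Lysates were treated with compound 29 or 30 at 50 or 200 µM for 4 h, then IA-DTB (500 µM, 1 h), trypsin-digested, NeutrAvidin-enriched and analysed by diaPASEF. Competition ratio = intensity DMSO / intensity compound (n=4 treated, n=64 DMSO); binding: mean log2 CR ≥ 1 and p ≤ 0.05 plus QC filters. Target is the cysteine site.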

| SMILES | log2 mean competition ratio |
| --- | --- |
| O=C(CCl)N[C@H]1CCCc2ccccc21 | -0.269 |
| O=C(CCl)N[C@@H]1CCCc2ccccc21 | -0.457 |

same assay, conditions: 200 µM; treatment time: 4 h; cell line lysate: HEK293T

| SMILES | log2 mean competition ratio |
| --- | --- |
| O=C(CCl)N[C@H]1CCCc2ccccc21 | 0.0653 |
| O=C(CCl)N[C@@H]1CCCc2ccccc21 | -0.0786 |
